Assay results from article PMC5216056 (Nature Communications, 2017).
Certain results were filed several times, with different values. This is not the full list of results. The source may hold further records. Results that share an entry differ, and nothing given here explains why; some may be repeats, others may stem from another dose, organism or construct than stated.

By UniProt entry, the sequences of proteins in these tests, tags left out.
UniProt P34972, whole entry: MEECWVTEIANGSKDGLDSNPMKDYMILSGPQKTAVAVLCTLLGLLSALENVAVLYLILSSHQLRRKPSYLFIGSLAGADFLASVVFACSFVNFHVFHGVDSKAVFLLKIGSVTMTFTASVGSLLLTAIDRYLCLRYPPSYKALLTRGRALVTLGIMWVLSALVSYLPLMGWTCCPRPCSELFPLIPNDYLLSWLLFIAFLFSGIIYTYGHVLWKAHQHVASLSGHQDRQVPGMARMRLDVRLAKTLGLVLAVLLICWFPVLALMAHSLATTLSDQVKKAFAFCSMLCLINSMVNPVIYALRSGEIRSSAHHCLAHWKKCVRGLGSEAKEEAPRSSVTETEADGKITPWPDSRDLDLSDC

Assays:
[1] = i.v., mice
[2] = target: hCB2R (Homo sapiens, UniProt P34972); test: [3H]CP55940 displacement assay; type: binding; settings: 10^(pKi CB2R-pKi CB1R)

| SMILES | Vss [1] | CB2R Selectivity (binding, human) [2] |
| --- | --- | --- |
| CN1CCCC[C@H]1Cn1cc(C(=O)c2cc([N+](=O)[O-])ccc2I)c2ccccc21 [(S)-AM1241] | 9.3 L/kg and > 3 L/kg |  |
| COc1ccc(C(=O)c2c(C)n(CCN3CCOCC3)c3cc(I)ccc23)cc1 [AM630] | 14.0 L/kg and > 3 L/kg |  |
| Cc1ccc2c(c1)Cc1c(C(=O)NN3CCCCC3)nn(-c3ccc(Cl)cc3Cl)c1-2 [Gp-1a] | 9.9 L/kg and > 3 L/kg | less than 30 fold and 5 fold |
| CCCCCCC(C)(C)c1cc(OC)c(C2=C[C@H]3CC[C@]2(CO)C3(C)C)c(OC)c1 [HU910] | 0.26 L/kg and < 1 L/kg |  |
| CCCn1c(C)c(C(=O)c2cccc3ccccc23)c2ccccc21 [JWH015] | 10.1 L/kg and > 3 L/kg |  |
